PubChem BioAssay AID1508597 – Cure First, 2020

Screen: 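Genes whose silencing sensitises or protects ovarian cancer cells against rucaparib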 (primary screen)
Cell system: human ovarian carcinoma lines grown from tumours: OCI-P5x (papillary serous) and OCI-C5x (clear cell)
Reagents: siRNA pool against human genes, 1.25 pmol siRNA per well
Duration: 72 h or 96 h, depending on the cell culture
Treatment: rucaparib 20 µM (about IC30) or vehicle, present until read-out
Rucaparib or vehicle: Rucaparib
Cell line: OCI-C5x (clear cell)
Measured: 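Luminescent ATP-based viability assay read 72 or 96 h after transfection, depending on culture, given as normalised percent viability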
Direction: viability, normalised: higher = more viable cells remaining
Call rule: 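a well counts as a hit if its normalised viability is under 80 percent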
Calls: active = viability under 80%; inactive = viability 80% or more
Shown is a random part of the about 2,100 reagents, in one setting of the screen. 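Calls flag viability under 80% in either arm, not effects specific to rucaparib; the reference for percent is not stated.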 Unmarked entries are inactive. Some reagents were tested in more than one well and are listed for each. Reagent sequences are not shown. Not stated in the record: the 100% reference.

no.	Gene	technical replicate	viability, normalised (%)
1	SKP1 (S-phase kinase associated protein 1)	1	45.7 (active)
2	SKP1 (S-phase kinase associated protein 1)	2	57.5 (active)
3	SKP1 (S-phase kinase associated protein 1)	3	55.6 (active)
4	CDK14 (cyclin dependent kinase 14)	1	70.8 (active)
5	CDK14 (cyclin dependent kinase 14)	2	67.6 (active)
6	CDK14 (cyclin dependent kinase 14)	3	65.4 (active)
7	ARID2 (AT-rich interaction domain 2)	1	48 (active)
8	ARID2 (AT-rich interaction domain 2)	2	56.3 (active)
9	ARID2 (AT-rich interaction domain 2)	3	53.9 (active)
10	TLR8 (toll like receptor 8)	1	73.5 (active)
11	TLR8 (toll like receptor 8)	2	65.6 (active)
12	TLR8 (toll like receptor 8)	3	59.1 (active)
13	ACHE (acetylcholinesterase (Yt blood group))	1	55.2 (active)
14	ACHE (acetylcholinesterase (Yt blood group))	2	55.6 (active)
15	ACHE (acetylcholinesterase (Yt blood group))	3	44 (active)
16	KDM2A (lysine demethylase 2A)	1	56 (active)
17	KDM2A (lysine demethylase 2A)	2	48.6 (active)
18	KDM2A (lysine demethylase 2A)	3	56.3 (active)
19	PBK (PDZ binding kinase)	1	58.8 (active)
20	PBK (PDZ binding kinase)	1	51.4 (active)
21	PBK (PDZ binding kinase)	2	45.2 (active)
22	PBK (PDZ binding kinase)	2	49.5 (active)
23	PBK (PDZ binding kinase)	3	34.8 (active)
24	PBK (PDZ binding kinase)	3	61.7 (active)
25	UBE2B (ubiquitin conjugating enzyme E2 B)	1	78.2 (active)
26	UBE2B (ubiquitin conjugating enzyme E2 B)	1	34.7 (active)
27	UBE2B (ubiquitin conjugating enzyme E2 B)	2	58.8 (active)
28	UBE2B (ubiquitin conjugating enzyme E2 B)	2	37.7 (active)
29	UBE2B (ubiquitin conjugating enzyme E2 B)	3	47.1 (active)
30	UBE2B (ubiquitin conjugating enzyme E2 B)	3	29.5 (active)
31	ERCC4 (ERCC excision repair 4, endonuclease catalytic subunit)	1	55.3 (active)
32	ERCC4 (ERCC excision repair 4, endonuclease catalytic subunit)	2	59 (active)
33	ERCC4 (ERCC excision repair 4, endonuclease catalytic subunit)	3	53.3 (active)
34	MORC3 (MORC family CW-type zinc finger 3)	1	41.1 (active)
35	MORC3 (MORC family CW-type zinc finger 3)	2	47.5 (active)
36	MORC3 (MORC family CW-type zinc finger 3)	3	38.4 (active)
37	SMARCA4	1	66.4 (active)
38	SMARCA4	1	30.2 (active)
39	SMARCA4	2	66.5 (active)
40	SMARCA4	2	36.5 (active)
41	SMARCA4	3	28.7 (active)
42	SMARCA4	3	56.5 (active)
43	ARID1B (AT-rich interaction domain 1B)	1	62.4 (active)
44	ARID1B (AT-rich interaction domain 1B)	2	61.3 (active)
45	ARID1B (AT-rich interaction domain 1B)	3	53.2 (active)
46	HNRNPU (heterogeneous nuclear ribonucleoprotein U)	1	61.2 (active)
47	HNRNPU (heterogeneous nuclear ribonucleoprotein U)	2	35.4 (active)
48	HNRNPU (heterogeneous nuclear ribonucleoprotein U)	3	47.5 (active)
49	WNT7A (Wnt family member 7A)	1	75.6 (active)
50	WNT7A (Wnt family member 7A)	2	69 (active)
51	WNT7A (Wnt family member 7A)	3	64.4 (active)
52	PRDM11 (PR/SET domain 11)	1	52.2 (active)
53	PRDM11 (PR/SET domain 11)	2	56.6 (active)
54	PRDM11 (PR/SET domain 11)	3	47 (active)
55	KAT2A (lysine acetyltransferase 2A)	1	62.6 (active)
56	KAT2A (lysine acetyltransferase 2A)	2	50.4 (active)
57	KAT2A (lysine acetyltransferase 2A)	3	50.5 (active)
58	STK10 (serine/threonine kinase 10)	1	50.6 (active)
59	STK10 (serine/threonine kinase 10)	2	55.8 (active)
60	STK10 (serine/threonine kinase 10)	3	42.8 (active)
61	POLR2E (RNA polymerase II, I and III subunit E)	1	66.2 (active)
62	POLR2E (RNA polymerase II, I and III subunit E)	2	65.2 (active)
63	POLR2E (RNA polymerase II, I and III subunit E)	3	89
64	PDE7A (phosphodiesterase 7A)	1	44.3 (active)
65	PDE7A (phosphodiesterase 7A)	2	49.2 (active)
66	PDE7A (phosphodiesterase 7A)	3	57.2 (active)
67	ERCC3 (ERCC excision repair 3, TFIIH core complex helicase subunit)	1	49.3 (active)
68	ERCC3 (ERCC excision repair 3, TFIIH core complex helicase subunit)	1	40.6 (active)
69	ERCC3 (ERCC excision repair 3, TFIIH core complex helicase subunit)	2	39.4 (active)
70	ERCC3 (ERCC excision repair 3, TFIIH core complex helicase subunit)	2	44.2 (active)
71	ERCC3 (ERCC excision repair 3, TFIIH core complex helicase subunit)	3	51.5 (active)
72	ERCC3 (ERCC excision repair 3, TFIIH core complex helicase subunit)	3	43 (active)
73	BRIP1 (BRCA1 interacting DNA helicase 1)	1	82.3
74	BRIP1 (BRCA1 interacting DNA helicase 1)	1	73 (active)
75	BRIP1 (BRCA1 interacting DNA helicase 1)	2	66.3 (active)
76	BRIP1 (BRCA1 interacting DNA helicase 1)	2	74.9 (active)
77	BRIP1 (BRCA1 interacting DNA helicase 1)	3	77.5 (active)
78	BRIP1 (BRCA1 interacting DNA helicase 1)	3	61.4 (active)

A few values from the entries so far:
MORC3 (MORC family CW-type zinc finger 3), technical replicate 2, viability, normalised (%) = 47.5 (active)
Result of SKP1 (S-phase kinase associated protein 1), technical replicate 3 under “viability, normalised (%)”: 55.6 (active)
ACHE (acetylcholinesterase (Yt blood group)), technical replicate 2, viability, normalised (%): 55.6 (active)
PRDM11 (PR/SET domain 11), technical replicate 2, viability, normalised (%) = 56.6 (active)
ARID2 (AT-rich interaction domain 2), technical replicate 1, viability, normalised (%) → 48 (active)
HNRNPU (heterogeneous nuclear ribonucleoprotein U), technical replicate 3, viability, normalised (%) → 47.5 (active)
